These are yes or no findings as the source states them, for the method shown. In cells and extracts the contact can be indirect. Some results given as binding are weak or reduced against the parent protein; the word gives no strength. For some of these results: Where a sequence is shown, tags or fusion partners need not be part of it.

The results in this text go back to PMC7809621.

The target in experiment [1] is T1, MAKR2-mCitrine (Arabidopsis thaliana) (UniProt Q9SH58).
T1 sequence: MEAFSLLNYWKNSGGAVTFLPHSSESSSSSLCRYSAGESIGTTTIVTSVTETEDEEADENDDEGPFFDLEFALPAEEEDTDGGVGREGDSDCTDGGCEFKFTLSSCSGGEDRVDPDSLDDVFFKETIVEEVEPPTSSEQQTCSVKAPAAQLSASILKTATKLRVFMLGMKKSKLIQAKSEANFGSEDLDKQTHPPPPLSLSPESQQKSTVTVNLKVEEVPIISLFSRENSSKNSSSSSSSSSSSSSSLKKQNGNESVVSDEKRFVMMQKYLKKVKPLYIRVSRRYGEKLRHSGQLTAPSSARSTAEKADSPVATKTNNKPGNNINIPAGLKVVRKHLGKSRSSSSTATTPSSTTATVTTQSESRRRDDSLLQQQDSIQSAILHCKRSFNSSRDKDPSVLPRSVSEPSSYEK
The experiment can be described thus: co-IP; Arabidopsis PSB-L protoplasts co-transfected; treated with DMSO or 1 μM IAA for 1 h; MAKR2-mCitrine precipitated with GFP-Trap Magnetic Agarose (1 h, 4°C); blots with anti-GFP and anti-HA.

Experiment [2] has as its target T2, Flag-Halo-MAKR2 (MEMBRANE ASSOCIATED KINASE REGULATOR2) (Arabidopsis thaliana) (UniProt Q9SH58).
T2 sequence: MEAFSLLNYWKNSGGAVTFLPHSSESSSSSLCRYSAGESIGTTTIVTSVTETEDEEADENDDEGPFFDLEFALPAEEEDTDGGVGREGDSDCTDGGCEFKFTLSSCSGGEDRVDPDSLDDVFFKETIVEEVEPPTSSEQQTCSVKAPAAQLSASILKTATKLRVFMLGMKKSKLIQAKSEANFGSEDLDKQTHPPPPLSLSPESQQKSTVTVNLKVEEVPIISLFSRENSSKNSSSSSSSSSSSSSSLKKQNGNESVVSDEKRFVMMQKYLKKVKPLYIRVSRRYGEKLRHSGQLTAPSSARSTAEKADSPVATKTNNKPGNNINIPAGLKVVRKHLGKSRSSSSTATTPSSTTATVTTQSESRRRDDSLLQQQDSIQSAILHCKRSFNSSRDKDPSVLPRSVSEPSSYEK
The experiment can be described thus: pull-down; Halo-tag pull-down; both plasmids expressed together in the wheat germ cell-free reaction (25°C, 2 h); Halo-tagged bait held on Halo-tag magnetic beads (room temperature, 30 min); washes in PBS + 0,05% Tween20; HA-tagged prey seen by anti-HA blot.

B1: TMK1^Δkinase-3HA (kinase-deleted TMK1, amino acid 1-587) (domain or fragment, UniProt P43298 24-587)
chain: DSDGDLSAMLSLKKSLNPPSSFGWSDPDPCKWTHIVCTGTKRVTRIQIGHSGLQGTLSPDLRNLSELERLELQWNNISGPVPSLSGLASLQVLMLSNNNFDSIPSDVFQGLTSLQSVEIDNNPFKSWEIPESLRNASALQNFSANSANVSGSLPGFLGPDEFPGLSILHLAFNNLEGELPMSLAGSQVQSLWLNGQKLTGDITVLQNMTGLKEVWLHSNKFSGPLPDFSGLKELESLSLRDNSFTGPVPASLLSLESLKVVNLTNNHLQGPVPVFKSSVSVDLDKDSNSFCLSSPGECDPRVKSLLLIASSFDYPPRLAESWKGNDPCTNWIGIACSNGNITVISLEKMELTGTISPEFGAIKSLQRIILGINNLTGMIPQELTTLPNLKTLDVSSNKLFGKVPGFRSNVVVNTNGNPDIGKDKSSLSSPGSSSPSGGSGSGINGDKDRRGMKSSTFIGIIVGSVLGGLLSIFLIGLLVFCWYKKRQKRFSGSESSNAVVVHPRHSGSDNESVKITVAGSSVSVGGISDTYTLPGTSEVGDNIQMVEAGNMLISIQVLRSVTNN
Regarding B1, the binding entry in experiment [1] is on record as “no binding”.

B2: HSL1^cyt-HA (cytosolic domain of HAESA-LIKE1) (domain or fragment, UniProt Q9SGP2 640-996)
chain: YFKYRTFKKARAMERSKWTLMSFHKLGFSEHEILESLDEDNVIGAGASGKVYKVVLTNGETVAVKRLWTGSVKETGDCDPEKGYKPGVQDEAFEAEVETLGKIRHKNIVKLWCCCSTRDCKLLVYEYMPNGSLGDLLHSSKGGMLGWQTRFKIILDAAEGLSYLHHDSVPPIVHRDIKSNNILIDGDYGARVADFGVAKAVDLTGKAPKSMSVIAGSCGYIAPEYAYTLRVNEKSDIYSFGVVILEIVTRKRPVDPELGEKDLVKWVCSTLDQKGIEHVIDPKLDSCFKEEISKILNVGLLCTSPLPINRPSMRRVVKMLQEIGGGDEDSLHKIRDDKDGKLTPYYNEDTSDQGSIA
With B2, the binding entry in experiment [2] is recorded as “no binding”.

B3: TMK1-3HA (full-length TRANSMEMBRANE KINASE1) (receptor, UniProt P43298 24-942)
chain: DSDGDLSAMLSLKKSLNPPSSFGWSDPDPCKWTHIVCTGTKRVTRIQIGHSGLQGTLSPDLRNLSELERLELQWNNISGPVPSLSGLASLQVLMLSNNNFDSIPSDVFQGLTSLQSVEIDNNPFKSWEIPESLRNASALQNFSANSANVSGSLPGFLGPDEFPGLSILHLAFNNLEGELPMSLAGSQVQSLWLNGQKLTGDITVLQNMTGLKEVWLHSNKFSGPLPDFSGLKELESLSLRDNSFTGPVPASLLSLESLKVVNLTNNHLQGPVPVFKSSVSVDLDKDSNSFCLSSPGECDPRVKSLLLIASSFDYPPRLAESWKGNDPCTNWIGIACSNGNITVISLEKMELTGTISPEFGAIKSLQRIILGINNLTGMIPQELTTLPNLKTLDVSSNKLFGKVPGFRSNVVVNTNGNPDIGKDKSSLSSPGSSSPSGGSGSGINGDKDRRGMKSSTFIGIIVGSVLGGLLSIFLIGLLVFCWYKKRQKRFSGSESSNAVVVHPRHSGSDNESVKITVAGSSVSVGGISDTYTLPGTSEVGDNIQMVEAGNMLISIQVLRSVTNNFSSDNILGSGGFGVVYKGELHDGTKIAVKRMENGVIAGKGFAEFKSEIAVLTKVRHRHLVTLLGYCLDGNEKLLVYEYMPQGTLSRHLFEWSEEGLKPLLWKQRLTLALDVARGVEYLHGLAHQSFIHRDLKPSNILLGDDMRAKVADFGLVRLAPEGKGSIETRIAGTFGYLAPEYAVTGRVTTKVDVYSFGVILMELITGRKSLDESQPEESIHLVSWFKRMYINKEASFKKAIDTTIDLDEETLASVHTVAELAGHCCAREPYQRPDMGHAVNILSSLVELWKPSDQNPEDIYGIDLDMSLPQALKKWQAYEGRSDLESSTSSLLPSLDNTQMSIPTRPYGFAESFTSVDGR
Take B3: the binding entry in experiment [1] is recorded as “binds”.

B4: TMK1^cyt-HA (isolated cytosolic domain of TRANSMEMBRANE KINASE1) (domain or fragment, UniProt P43298 504-942)
chain: CWYKKRQKRFSGSESSNAVVVHPRHSGSDNESVKITVAGSSVSVGGISDTYTLPGTSEVGDNIQMVEAGNMLISIQVLRSVTNNFSSDNILGSGGFGVVYKGELHDGTKIAVKRMENGVIAGKGFAEFKSEIAVLTKVRHRHLVTLLGYCLDGNEKLLVYEYMPQGTLSRHLFEWSEEGLKPLLWKQRLTLALDVARGVEYLHGLAHQSFIHRDLKPSNILLGDDMRAKVADFGLVRLAPEGKGSIETRIAGTFGYLAPEYAVTGRVTTKVDVYSFGVILMELITGRKSLDESQPEESIHLVSWFKRMYINKEASFKKAIDTTIDLDEETLASVHTVAELAGHCCAREPYQRPDMGHAVNILSSLVELWKPSDQNPEDIYGIDLDMSLPQALKKWQAYEGRSDLESSTSSLLPSLDNTQMSIPTRPYGFAESFTSVDGR
B4: the binding result in experiment [2] is reported as “binds”.
